{
  "source": "PubChem BioAssay AID248",
  "about": "(DTP/NCI, 2004)",
  "test_system": "L1210 leukemia ip in BDF1 mice, survival T/C",
  "assay": "NCI In Vivo Anticancer Drug Screen. Data for tumor model L1210 Leukemia (intraperitoneal) in B6D2F1 (BDF1) mice",
  "conditions": "T/C endpoint: mean survival time, higher T/C = longer survival",
  "key": {"[1]": {"conditions": "dose: 200.0 mg/kg/injection, schedule: Q01DX001 (ip), vehicle: saline"}, "[2]": {"conditions": "dose: 400.0 mg/kg/injection, schedule: Q01DX001 (ip), vehicle: saline"}, "[3]": {"conditions": "dose: 400.0 mg/kg/injection, schedule: Q01DX001 (ip), vehicle: saline with Tween-80"}, "[4]": {"conditions": "dose: 200.0 mg/kg/injection, schedule: Q01DX009 (ip), vehicle: Klucel (hydroxypropylcellulose) (HPC)"}, "[5]": {"conditions": "dose: 17.0 mg/kg/injection, schedule: Q01DX001 (ip), vehicle: carboxymethylcellulose (CMC)"}},
  "note": "The list does not hold the whole screen: it is rich in T/C values a quarter to a half above the control, in often repeated tests (any T/C) and in doses without a T/C. Further doses and runs are listed elsewhere. T/C is the treated group as % of the vehicle group. Some doses have a count of surviving animals in place of a T/C: the source holds a T/C of zero for them, seemingly a mark for toxic or unscored doses. Some survivor counts are full or nearly so, which does not show that the dose was tolerated: the source hardly ever lists a survival T/C far under the control, and the zero likely stands for such cases as well. Counts of survivors are from the toxicity check (mostly the fifth day) where no day follows; animals may have died later. Schedule codes are those of the source, read here as Q, the interval in days (D) or hours (H), X, the number of doses. Some schedule codes hold Z or #, which are not explained here. For survival time, this PubChem deposit counts one and a half times the control or more as active, and values a quarter to a half above the control carry no call in these data; other NCI protocols may use other cut-offs. Some T/C values are followed by the survivors on the day toxicity was checked, most often the fifth; where none is given, no animal had died by that day.",
  "data": [
    {"smiles": "Cc1ccc(Nc2cc(N)nc(N)n2)cc1", "values": [
      {"measurement": "survivor count", "setting": "dose: 50.0 mg/kg/injection, schedule: Q01DX Z (ip), vehicle: methylcellulose (MC)", "result": "6 of 6"},
      {"measurement": "survivor count", "setting": "dose: 100.0 mg/kg/injection, schedule: Q01DX Z (ip), vehicle: methylcellulose (MC)", "result": "1 of 6"},
      {"measurement": "survivor count", "setting": "dose: 200.0 mg/kg/injection, schedule: Q01DX Z (ip), vehicle: methylcellulose (MC)", "result": "0 of 6"}
    ]},
    {"smiles": "Cc1nccnc1S(=O)(=O)c1ccc2ccccc2c1", "values": [
      {"measurement": "survivor count", "setting": "dose: 400.0 mg/kg/injection, schedule: Q01DX001 (ip), vehicle: Klucel (hydroxypropylcellulose) (HPC)", "result": "2 of 6"}
    ]},
    {"smiles": "CNC1CCCc2ccccc2C1O", "note": "(centres undefined)", "values": [
      {"measurement": "survivor count", "setting": "[1]", "result": "2 of 4"},
      {"measurement": "survivor count", "setting": "[2]", "result": "0 of 4"}
    ]},
    {"smiles": "Nc1ccnc(OCc2ccccc2)n1", "values": [
      {"measurement": "survivor count", "setting": "[3]", "result": "5 of 6"}
    ]},
    {"smiles": "C=CCn1c(=S)[nH]c2ccccc2c1=O", "values": [
      {"measurement": "survivor count", "setting": "dose: 100.0 mg/kg/injection, schedule: Q01DX009 (ip), vehicle: saline with Tween-80", "result": "6 of 6"}
    ]},
    {"smiles": "C1CCC(NC2=NCCO2)CC1", "values": [
      {"measurement": "survivor count", "setting": "dose: 100.0 mg/kg/injection, schedule: Q04DX002 (ip), vehicle: saline with Tween-80", "result": "3 of 3"}
    ]},
    {"smiles": "CC12CCCCC1C=CC(=O)C2", "note": "(centres undefined)", "values": [
      {"measurement": "survivor count", "setting": "dose: 300.0 mg/kg/injection, schedule: Q01DX001 (ip), vehicle: other", "result": "1 of 6"}
    ]},
    {"smiles": "CC#CC#CC(=O)c1ccccc1", "values": [
      {"measurement": "survivor count", "setting": "dose: 75.0 mg/kg/injection, schedule: Q01DX001 (ip), vehicle: saline", "result": "0 of 6"},
      {"measurement": "survivor count", "setting": "dose: 150.0 mg/kg/injection, schedule: Q01DX001 (ip), vehicle: saline", "result": "0 of 6"},
      {"measurement": "survivor count", "setting": "dose: 300.0 mg/kg/injection, schedule: Q01DX001 (ip), vehicle: saline", "result": "0 of 6"}
    ]},
    {"smiles": "COc1cc(/C=C/c2ccnc3ccccc23)cc(OC)c1OC", "values": [
      {"measurement": "survivor count", "setting": "dose: 80.0 mg/kg/injection, schedule: Q01DX001 (ip), vehicle: saline", "result": "0 of 6"},
      {"measurement": "survivor count", "setting": "dose: 100.0 mg/kg/injection, schedule: Q01DX001 (ip), vehicle: saline", "result": "0 of 6"},
      {"measurement": "survivor count", "setting": "[1]", "result": "1 of 6"},
      {"measurement": "survivor count", "setting": "[2]", "result": "0 of 6"}
    ]},
    {"smiles": "NC(N)=N/N=C/c1ccncc1", "values": [
      {"measurement": "survivor count", "setting": "dose: 225.0 mg/kg/injection, schedule: Q01DX009 (ip), vehicle: saline", "result": "1 of 3"},
      {"measurement": "survivor count", "setting": "dose: 480.0 mg/kg/injection, schedule: Q01DX Z (oral), vehicle: saline", "result": "1 of 6"}
    ]},
    {"smiles": "NC(=O)/C=C\\C(N)=O", "values": [
      {"measurement": "survivor count", "setting": "dose: 25.0 mg/kg/injection, schedule: Q01DX009 (ip), vehicle: saline", "result": "6 of 6"}
    ]},
    {"smiles": "Nc1ccccc1SC1CC(=O)N(c2ccc(I)cc2)C1=O", "note": "(centres undefined)", "values": [
      {"measurement": "survivor count", "setting": "dose: 100.0 mg/kg/injection, schedule: Q04DX003 (ip), vehicle: saline", "result": "6 of 6"}
    ]},
    {"smiles": "CCS/C(Cl)=C(\\Cl)SCC", "values": [
      {"measurement": "survivor count", "setting": "[4]", "result": "1 of 6"},
      {"measurement": "survivor count", "setting": "dose: 400.0 mg/kg/injection, schedule: Q01DX009 (ip), vehicle: Klucel (hydroxypropylcellulose) (HPC)", "result": "0 of 6"}
    ]},
    {"smiles": "N=C(N)SCc1ccc(Br)cc1", "values": [
      {"measurement": "survivor count", "setting": "[2]", "result": "1 of 6"}
    ]},
    {"smiles": "CCCCC(CC)CNCC(O)CNCC(CC)CCCC", "note": "(centres undefined)", "values": [
      {"measurement": "survivor count", "setting": "dose: 100.0 mg/kg/injection, schedule: Q01DX009 (ip), vehicle: Klucel (hydroxypropylcellulose) (HPC)", "result": "0 of 3"},
      {"measurement": "survivor count", "setting": "[4]", "result": "0 of 3"},
      {"measurement": "survivor count", "setting": "dose: 400.0 mg/kg/injection, schedule: Q04DX002 (ip), vehicle: Klucel (hydroxypropylcellulose) (HPC)", "result": "0 of 3"}
    ]},
    {"smiles": "COc1ccc(Cl)cc1NC(=O)N(CCCl)N=O", "values": [
      {"measurement": "T/C", "setting": "dose: 0.2 mg/kg/injection, schedule: Q01DX009 (ip), vehicle: carboxymethylcellulose (CMC)", "result": "130 % of control"},
      {"measurement": "T/C", "setting": "dose: 0.4 mg/kg/injection, schedule: Q01DX009 (ip), vehicle: carboxymethylcellulose (CMC)", "result": "146 % of control"},
      {"measurement": "T/C", "setting": "dose: 0.7 mg/kg/injection, schedule: Q01DX009 (ip), vehicle: carboxymethylcellulose (CMC)", "result": "140 % of control"},
      {"measurement": "T/C", "setting": "dose: 1.5 mg/kg/injection, schedule: Q01DX009 (ip), vehicle: carboxymethylcellulose (CMC)", "result": "135 % of control"},
      {"measurement": "T/C", "setting": "dose: 3.0 mg/kg/injection, schedule: Q01DX009 (ip), vehicle: carboxymethylcellulose (CMC)", "result": "143 % of control"},
      {"measurement": "T/C", "setting": "dose: 4.0 mg/kg/injection, schedule: Q01DX001 (ip), vehicle: carboxymethylcellulose (CMC)", "result": "128 % of control"},
      {"measurement": "T/C", "setting": "dose: 8.0 mg/kg/injection, schedule: Q01DX001 (ip), vehicle: carboxymethylcellulose (CMC)", "result": "138 % of control"},
      {"measurement": "T/C", "setting": "dose: 8.5 mg/kg/injection, schedule: Q01DX001 (ip), vehicle: Klucel (hydroxypropylcellulose) (HPC)", "result": "141 % of control"},
      {"measurement": "T/C", "setting": "dose: 9.0 mg/kg/injection, schedule: Q01DX009 (ip), vehicle: Klucel (hydroxypropylcellulose) (HPC)", "result": "135 % of control"},
      {"measurement": "T/C", "setting": "dose: 13.3 mg/kg/injection, schedule: Q01DX009 (ip), vehicle: carboxymethylcellulose (CMC)", "result": "131 % of control"},
      {"measurement": "T/C", "setting": "[5]", "result": "126 % of control"},
      {"measurement": "survivor count", "setting": "[5]", "result": "5 of 6"},
      {"measurement": "T/C", "setting": "dose: 17.0 mg/kg/injection, schedule: Q01DX009 (ip), vehicle: Klucel (hydroxypropylcellulose) (HPC)", "result": "146 % of control [5 of 6 alive]"},
      {"measurement": "survivor count", "setting": "dose: 40.0 mg/kg/injection, schedule: Q01DX001 (ip), vehicle: carboxymethylcellulose (CMC)", "result": "5 of 6"},
      {"measurement": "survivor count", "setting": "dose: 40.0 mg/kg/injection, schedule: Q01DX009 (ip), vehicle: Klucel (hydroxypropylcellulose) (HPC)", "result": "6 of 6"},
      {"measurement": "survivor count", "setting": "dose: 60.0 mg/kg/injection, schedule: Q01DX001 (ip), vehicle: carboxymethylcellulose (CMC)", "result": "3 of 6"},
      {"measurement": "survivor count", "setting": "dose: 60.0 mg/kg/injection, schedule: Q01DX009 (ip), vehicle: Klucel (hydroxypropylcellulose) (HPC)", "result": "6 of 6"},
      {"measurement": "survivor count", "setting": "dose: 150.0 mg/kg/injection, schedule: Q01DX001 (ip), vehicle: carboxymethylcellulose (CMC)", "result": "5 of 6"},
      {"measurement": "survivor count", "setting": "dose: 300.0 mg/kg/injection, schedule: Q01DX001 (ip), vehicle: carboxymethylcellulose (CMC)", "result": "0 of 6"}
    ]},
    {"smiles": "Nc1nc(N)c2cc(CCc3ccccc3)ccc2n1", "values": [
      {"measurement": "survivor count", "setting": "dose: 400.0 mg/kg/injection, schedule: Q01DX001 (ip), vehicle: carboxymethylcellulose (CMC)", "result": "0 of 4"},
      {"measurement": "survivor count", "setting": "dose: 400.0 mg/kg/injection, schedule: Q04DX003 (ip), vehicle: Klucel (hydroxypropylcellulose) (HPC)", "result": "0 of 6"}
    ]},
    {"smiles": "S=C(Nc1ccccc1)Nc1ccc(NC(=S)Nc2ccccc2)cc1", "values": [
      {"measurement": "survivor count", "setting": "[3]", "result": "0 of 3"}
    ]}
  ]
}
